We go through 1 molecule from publication doi:10.1101/2020.01.31.926402.

The assay concerns the target Br-FLAG (murine BR) (murine). The experiment in a line: co-IP.

Results are given in words; binding and its absence hold for the method and conditions named. Binding seen in cells or lysates may run through a third protein. Binding calls can cover weak binding; strength is not graded here.

B1: UQCRC1, mouse (protein, UniProt Q9CZ13 35-480)
chain: TATFAQALQSVPETQVSILDNGLRVASEQSSHATCTVGVWIDAGSRYETEKNNGAGYFLEHLAFKGTKNRPGNALEKEVESIGAHLNAYSTREHTAYLIKALSKDLPKVVELLADIVQNSSLEDSQIEKERDVILREMQENDASMQNVVFDYLHATAFQGTPLAQAVEGPSENVRRLSRTDLTDYLNRHYKAPRMVLAAAGGVEHQQLLDLAQKHLSSVSRVYEEDAVPGLTPCRFTGSEIRHRDDALPLAHVAIAVEGPGWANPDNVTLQVANAIIGHYDCTYGGGVHLSSPLASVAVANKLCQSFQTFNISYSDTGLLGAHFVCDAMSIDDMVFFLQGQWMRLCTSATESEVTRGKNILRNALVSHLDGTTPVCEDIGRSLLTYGRRIPLAEWESRIQEVDAQMLRDICSKYFYDQCPAVAGYGPIEQLPDYNRIRSGMFWLRF
Regarding B1, the binding result is given as “binds”.
